This is an account of results in PMC9162485.

The target of the assay is p62 (exogenous, tag not printed for the experiment) (UniProt Q13501). Description: co-IP.

No constants are given. Whether binding was seen depends on the method and setting. In cells and extracts the contact can be indirect. Some entries that bind do so weakly or less than the wild type.

Take “SARS-CoV-2 NSP5 (main protease) (from UniProt P0DTD1 3264-3569) (enzyme)”: the binding entry is recorded as “binds”.
